No constants are given. Whether binding was seen depends on the method and setting. Some binding calls cover weakened binding; strength is not graded here.
Biological target: GST-BIR2 (human) (UniProt P98170)
Assay: biotinylated peptide on Neutravidin plate, GST-XIAP BIR2 added, anti-GST detection

Protein sequences, listed by entry. Tags and fused reporters are not part of them. Residues count along the entry.
UniProt P98170, residues 124-240: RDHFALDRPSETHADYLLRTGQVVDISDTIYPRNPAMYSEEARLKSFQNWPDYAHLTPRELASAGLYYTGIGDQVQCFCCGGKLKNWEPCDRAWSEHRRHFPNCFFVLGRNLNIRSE

B1: biotinylated SMAC 7-mer peptide (peptide)
peptide: AVPIAQK
modifications: biotin (site not stated)
- binding: binds

— patent US20060211627A1 (BURNHAM INSTITUTE, published 2006)
